Results deposited as PubChem BioAssay AID504808 (Drosophila RNAi Screening Center, 2011).

Assay: 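Chromatin factors that keep E2F targets switched off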 (primary screen)
Cell system: Drosophila S2 cells
Reagent: long dsRNA against Drosophila genes
Measured: 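Firefly luciferase driven by E2F sites, normalised to Renilla luciferase on the same minimal promoter, measured by plate reader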
Direction: E2F firefly: higher = more E2F reporter activity; Renilla normaliser: higher = more normaliser reporter signal
Active means: 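a knock-down counted as active when the firefly/Renilla E2F signal rose above 50%, a threshold chosen arbitrarily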
The screen tested about 21,000 reagents; this is a random part of those with a known target gene and a result. In the full data, 18 (0.084%) got an active call. 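Raw counts without plate normalisation, one of two replicates; the ratio scores behind the calls were not deposited.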 Reagents against one gene are numbered here. Reagent sequences are not shown. Not stated in the record: the amount of reagent, the time to read-out.

Semp1 (GeneID 34914) — E2F firefly, rep 1: 1.23e5; Renilla normaliser, rep 1: 4211; call: inactive
CG15483 (GeneID 34687) — E2F firefly, rep 1: 95969; Renilla normaliser, rep 1: 3934; call: inactive
Scgalpha (GeneID 34135) — E2F firefly, rep 1: 1.56e5; Renilla normaliser, rep 1: 4884; call: inactive
babos (GeneID 37557) #1 — E2F firefly, rep 1: 1.33e5; Renilla normaliser, rep 1: 4879; call: inactive
babos (GeneID 37557) #2 — E2F firefly, rep 1: 81024; Renilla normaliser, rep 1: 3379; call: inactive
CG18336 (GeneID 50236) — E2F firefly, rep 1: 1.09e5; Renilla normaliser, rep 1: 4511; call: inactive
ND-B16.6 (GeneID 31578) — E2F firefly, rep 1: 45897; Renilla normaliser, rep 1: 3259; call: inactive
CG10317 (GeneID 41987) — E2F firefly, rep 1: 1.15e5; Renilla normaliser, rep 1: 6885; call: inactive
CG14926 (GeneID 34567) — E2F firefly, rep 1: 1.57e5; Renilla normaliser, rep 1: 5742; call: inactive
CG34181 (GeneID 5740634) — E2F firefly, rep 1: 1.24e5; Renilla normaliser, rep 1: 6466; call: inactive
CG10631 (GeneID 35262) — E2F firefly, rep 1: 70342; Renilla normaliser, rep 1: 3166; call: inactive
Med (GeneID 43725) — E2F firefly, rep 1: 32154; Renilla normaliser, rep 1: 2570; call: inactive
Spg7 (GeneID 31253) — E2F firefly, rep 1: 1.14e5; Renilla normaliser, rep 1: 6069; call: inactive
Obp50d (GeneID 246436) — E2F firefly, rep 1: 1.38e5; Renilla normaliser, rep 1: 4998; call: inactive
spz5 (GeneID 38350) — E2F firefly, rep 1: 80244; Renilla normaliser, rep 1: 3644; call: inactive
CG33253 (GeneID 2768889) #1 — E2F firefly, rep 1: 1.53e5; Renilla normaliser, rep 1: 6639; call: inactive
CG33253 (GeneID 2768889) #2 — E2F firefly, rep 1: 1.27e5; Renilla normaliser, rep 1: 121; call: inactive
Bet5 (GeneID 43590) — E2F firefly, rep 1: 1.24e5; Renilla normaliser, rep 1: 5937; call: inactive
CG11693 (GeneID 40984) — E2F firefly, rep 1: 1.26e5; Renilla normaliser, rep 1: 5940; call: inactive
CG1416 (GeneID 35426) — E2F firefly, rep 1: 68998; Renilla normaliser, rep 1: 3169; call: inactive
nonA (GeneID 32603) — E2F firefly, rep 1: 2.34e5; Renilla normaliser, rep 1: 9442; call: inactive
Cad86C (GeneID 41302) #1 — E2F firefly, rep 1: 1.38e5; Renilla normaliser, rep 1: 6788; call: inactive
Cad86C (GeneID 41302) #2 — E2F firefly, rep 1: 1.26e5; Renilla normaliser, rep 1: 6452; call: inactive
CG5326 (GeneID 42655) #1 — E2F firefly, rep 1: 84333; Renilla normaliser, rep 1: 2429; call: inactive
CG5326 (GeneID 42655) #2 — E2F firefly, rep 1: 57412; Renilla normaliser, rep 1: 3196; call: inactive
CG3626 (GeneID 31377) — E2F firefly, rep 1: 45343; Renilla normaliser, rep 1: 3494; call: inactive
stl (GeneID 37619) — E2F firefly, rep 1: 81802; Renilla normaliser, rep 1: 3442; call: inactive
mRpS35 (GeneID 38345) — E2F firefly, rep 1: 1.02e5; Renilla normaliser, rep 1: 4230; call: inactive
